In patent US7879797B2, “HCV NS3 protease inhibitors” (Merck Sharp & Dohme Corp., priority 2005, dated 2011):
pKi: −log10 of the molar value. Some results were stated once for a whole list of compounds, not compound by compound.

The chains behind the UniProt entries cited, without tags or fusion partners. Residues count along the entry.
UniProt P27958, 1027-1657: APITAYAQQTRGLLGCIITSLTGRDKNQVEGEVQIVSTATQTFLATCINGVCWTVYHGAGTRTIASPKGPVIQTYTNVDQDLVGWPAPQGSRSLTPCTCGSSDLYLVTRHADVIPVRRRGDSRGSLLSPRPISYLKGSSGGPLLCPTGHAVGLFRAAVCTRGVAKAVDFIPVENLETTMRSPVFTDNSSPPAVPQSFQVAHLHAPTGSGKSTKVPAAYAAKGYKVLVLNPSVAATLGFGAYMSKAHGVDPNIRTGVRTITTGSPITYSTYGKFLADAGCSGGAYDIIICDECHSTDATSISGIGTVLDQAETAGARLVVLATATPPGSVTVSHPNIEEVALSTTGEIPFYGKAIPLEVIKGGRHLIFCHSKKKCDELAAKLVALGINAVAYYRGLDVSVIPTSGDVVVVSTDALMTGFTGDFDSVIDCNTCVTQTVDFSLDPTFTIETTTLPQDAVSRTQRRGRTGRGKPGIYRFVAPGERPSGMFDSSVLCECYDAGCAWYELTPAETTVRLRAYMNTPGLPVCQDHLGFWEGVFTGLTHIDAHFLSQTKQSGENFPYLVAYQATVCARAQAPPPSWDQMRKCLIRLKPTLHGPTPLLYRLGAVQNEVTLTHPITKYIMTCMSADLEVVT
UniProt P27958, 1658-1711: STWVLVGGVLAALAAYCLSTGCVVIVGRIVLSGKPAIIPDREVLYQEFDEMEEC

Target: HCV NS3 protease (Hepatitis C virus genotype 1a, UniProt P27958)
Experiment: HCV NS3 protease time-resolved fluorescence (TRF) assay
Format: biochemical

| SMILES | pKi |
| --- | --- |
| C=C[C@@H]1C[C@]1(NC(=O)[C@@H]1C[C@@H]2CN1C(=O)[C@H](CCCC)NC(=O)OC/C=C\c1ccc3nc(-c4ccccc4)cc(c3c1)O2)C(=O)O (mixture of isomers) [III-1, (1RS,2SR)-1-({[(2R,4S,7S)-7-Butyl-6,9-dioxo-18-phenyl-3,4,6,7,8,9-hexahydro-2H,11H-14,16-etheno-2,5-methanopyrido[4,3-k][1,10,3,6]dioxadiazacycloheptadecin-4-yl]carbonyl}amino)-2-vinylcyclopropanecarboxylic acid] | > 5.00 |
| C=C[C@@H]1C[C@]1(NC(=O)[C@@H]1C[C@@H]2CN1C(=O)[C@H](CCCC)NC(=O)O[C@H]1CCC[C@@H]1/C=C/c1ccc3nc(-c4ccccc4)cc(c3c1)O2)C(=O)O (racemic) [III-7, (1R,2S)-1-({[(6R,8S,11S,14aS,17aR)-11-Butyl-10,13-dioxo-3-phenyl-7,8,10,11,12,13,15,16,17,17a-decahydro-6H,14aH-1,20-etheno-6,9-methanocyclopenta[q]pyrido[4,3-k][1,10,3,6]dioxadiazacyclooctadecin-8-yl]carbonyl}amino)-2-vinylcyclopropanecarboxylic acid] | > 5.00 |
| C=C[C@@H]1C[C@]1(NC(=O)[C@@H]1C[C@@H]2CN1C(=O)[C@H](CCCC)NC(=O)CC/C=C/c1ccc3nc(-c4ccccc4)cc(c3c1)O2)C(=O)O [III-6, (1R,2S)-1-({[(2R,4S,7S)-7-Butyl-6,9-dioxo-18-phenyl-3,4,6,7,8,9,10,11-octahydro-2H-14,16-ethanediylidene-2,5-methanopyrido[3,4-p][1,5,8]oxadiazacycloheptadecin-4-yl]carbonyl}amino)-2-vinylcyclopropanecarboxylic acid] | > 5.00 |
| C=C[C@@H]1C[C@]1(NC(=O)[C@@H]1C[C@@H]2CN1C(=O)[C@H](CCCC)NC(=O)CCCC/C=C/c1ccc3nc(-c4ccccc4)cc(c3c1)O2)C(=O)O [III-13, (1R,2S)-1-({[(2R,4S,7S)-7-Butyl-6,9-dioxo-20-phenyl-3,4,6,7,8,9,10,11,12,13-decahydro-2H-16,18-ethanediylidene-2,5-methanopyrido[3,4-r][1,5,8]oxadiazacyclononadecin-4-yl]carbonyl}amino)-2-vinylcyclopropane carboxylic acid] | > 5.00 |
| C=C[C@@H]1C[C@]1(NC(=O)[C@@H]1C[C@@H]2CN1C(=O)[C@H](C)NC(=O)OCCC/C=C/c1ccc3nc(-c4ccccc4)cc(c3c1)O2)C(=O)O [III-16, (1R,2S)-1-({[(2R,4S,7S)-7-Methyl-6,9-dioxo-20-phenyl-3,4,6,7,8,9,12,13-octahydro-2H,11H-16,18-ethanediylidene-2,5-methanopyrido[4,3-k][1, 10,3,6]dioxadiazacyclononadecin-4-yl]carbonyl}amino)-2-vinylcyclo propanecarboxylic acid] | > 5.00 |
| C=C[C@@H]1C[C@]1(NC(=O)[C@@H]1C[C@@H]2CN1C(=O)[C@H](C)NC(=O)OCCCCCc1ccc3nc(-c4ccccc4)cc(c3c1)O2)C(=O)O [III-17, (1R,2S)-1-({[(2R,4S,7S)-7-Methyl-6,9-dioxo-20-phenyl-3,4,6,7,8,9,12,13,14,15-decahydro-2H,11H-16,18-ethanediylidene-2,5-methanopyrido[4,3-k][1, 10,3,6]dioxadiazacyclononadecin-4-yl]carbonyl}amino)-2-vinylcyclo propanecarboxylic acid] | > 5.00 |
| C=C[C@@H]1C[C@]1(NC(=O)[C@@H]1C[C@@H]2CN1C(=O)[C@H](CCCC)NC(=O)NCCC/C=C/c1ccc3nc(-c4ccccc4)cc(c3c1)O2)C(=O)O [III-18, (1R,2S)-1-({[(2R,4S,7S)-7-Butyl-6,9-dioxo-20-phenyl-3,4,6,7,8,9,10,11,12,13-decahydro-2H-16,18-ethanediylidene-2,5-methanopyrido[3,4-r][1,5,8,10]oxatriazacyclononadecin-4-yl]carbonyl}amino)-2-vinylcyclopropane carboxylic acid] | > 5.00 |
| C=C[C@@H]1C[C@]1(NC(=O)[C@@H]1C[C@@H]2CN1C(=O)[C@H](CCCC)NC(=O)OCCCCCc1ccc3nc(-c4ccccc4)cc(c3c1)O2)C(=O)NS(=O)(=O)C1CC1 [III-20, (2R,4S,7S)-7-Butyl-N-((1R,2S)-1-{[(cyclopropylsulfonyl)amino]carbonyl}-2-vinylcyclopropyl)-6,9-dioxo-20-phenyl-3,4,6,7,8,9,12,13,14,15-decahydro-2H,11H-16,18-ethanediylidene-2,5-methanopyrido[4,3-k][1,10,3,6]dioxadiazacyclononadecine-4-carboxamide] | > 5.00 |
| CCCC[C@@H]1NC(=O)OCCCCCc2ccc3nc(-c4ccccc4)cc(c3c2)O[C@@H]2C[C@@H](C(=O)N[C@]3(C(=O)NS(=O)(=O)C4CC4)C[C@H]3CC)N(C2)C1=O [III-21, (2R,4S,7S)-7-butyl-N-((1R,2R)-1-[(cyclopropylsulfonyl)amino]carbonyl-2-ethylcyclopropyl)-6,9-dioxo-20-phenyl-3,4,6,7,8,9,12,13,14,15-decahydro-2H,11H-16,18-ethanediylidene-2,5-methanopyrido[4,3-k][1,10,3,6]dioxadiazacyclononadecine-4-carboxamide] | > 5.00 |
| C=C[C@@H]1C[C@]1(NC(=O)[C@@H]1C[C@@H]2CN1C(=O)[C@H](C)NC(=O)OCCCCCc1ccc3nc(-c4ccccc4)cc(c3c1)O2)C(=O)NS(=O)(=O)C1CC1 [III-22, (2R,4S,7S)—N-((1R,2S)-1-{[(Cyclopropylsulfonyl)amino]carbonyl}-2-vinylcyclopropyl)-7-methyl-6,9-dioxo-20-phenyl-3,4,6,7,8,9,12,13,14,15-decahydro-2H,11H-16,18-ethanediylidene-2,5-methanopyrido[4,3-k][1,10,3,6]dioxadiazacyclononadecine-4-carboxamide] | > 5.00 |

Continued, values first:

| pKi | SMILES |
| --- | --- |
| > 5.00 | C=C[C@@H]1C[C@]1(NC(=O)[C@@H]1C[C@@H]2CN1C(=O)[C@H](CCCC)NC(=O)OCCCc1ccc3nc(-c4ccccc4)cc(c3c1)O2)C(=O)O [III-2, (1R,2S)-1-({[(2R,4S,7S)-7-Butyl-6,9-dioxo-18-phenyl-3,4,6,7,8,9,12,13-octahydro-2H,11H-14,16-etheno-2,5-methanopyrido[4,3-k][1,10,3,6]dioxadiazacycloheptadecin-4-yl]carbonyl}amino)-2-vinylcyclopropanecarboxylic acid] |
| > 5.00 | C=C[C@@H]1C[C@]1(NC(=O)[C@@H]1C[C@@H]2CN1C(=O)[C@H](CCCC)NC(=O)OCCC/C=C/c1ccc3nc(-c4ccccc4)cc(c3c1)O2)C(=O)O [III-3, (1R,2S)-1-({[(2R,4S,7S)-7-Butyl-6,9-dioxo-20-phenyl-3,4,6,7,8,9,12,13-octahydro-2H,11H-16,18-ethanediylidene-2,5-methanopyrido[4,3-k][1,10,3,6]dioxadiazacyclononadecin-4-yl]carbonyl}amino)-2-vinylcyclopropanecarboxylic acid] |
| > 5.00 | C=C[C@@H]1C[C@]1(NC(=O)[C@@H]1C[C@@H]2CN1C(=O)[C@H](CCCC)NC(=O)OCC/C=C/c1ccc3nc(-c4ccccc4)cc(c3c1)O2)C(=O)O [III-4, (1R,2S)-1-({[(2R,4S,7S)-7-Butyl-6,9-dioxo-19-phenyl-3,4,6,7,8,9,11,12-octahydro-2H-15,17-ethanediylidene-2,5-methanopyrido[4,3-k][1,10,3,6]dioxadiazacyclooctadecin-4-yl]carbonyl}amino)-2-vinylcyclopropanecarboxylic acid] |
| > 5.00 | C=C[C@@H]1C[C@]1(NC(=O)[C@@H]1C[C@@H]2CN1C(=O)[C@H](CCCC)NC(=O)OCCCCc1ccc3nc(-c4ccccc4)cc(c3c1)O2)C(=O)O [III-5, (1R,2S)-1-({[(2R,4S,7S)-7-Butyl-6,9-dioxo-19-phenyl-3,4,6,7,8,9,11,12,13,14-decahydro-2H-15,17-ethanediylidene-2,5-methanopyrido[4,3-k][1,10,3,6]dioxadiazacyclooctadecin-4-yl]carbonyl}amino)-2-vinylcyclopropanecarboxylic acid] |
| > 5.00 | C=C[C@@H]1C[C@]1(NC(=O)[C@@H]1C[C@@H]2CN1C(=O)[C@H](CCCC)NC(=O)OCCC/C=C/c1cc3c(cc(-c4ccccc4)nc3cc1OC)O2)C(=O)O [III-8, (1R,2S)-1-({[(2R,4S,7S)-7-Butyl-23-methoxy-6,9-dioxo-20-phenyl-3,4,6,7,8,9,12,13-octahydro-2H,11H-16,18-etheno-2,5-methanopyrido[4,3-k][1,10,3,6]dioxadiazacyclononadecin-4-yl]carbonyl}amino)-2-vinylcyclopropanecarboxylic acid] |
| > 5.00 | C=C[C@@H]1C[C@]1(NC(=O)[C@@H]1C[C@@H]2CN1C(=O)[C@H](CCCC)NC(=O)OCCCCCc1ccc3nc(-c4ccccc4)cc(c3c1)O2)C(=O)O [III-14, (1R,2S)-1-({[(2R,4S,7S)-7-Butyl-6,9-dioxo-20-phenyl-3,4,6,7,8,9,12,13,14,15-decahydro-2H,11H-16,18-ethanediylidene-2,5-methanopyrido[4,3-k][1, 10,3,6]dioxadiazacyclononadecin-4-yl]carbonyl}amino)-2-vinylcyclo propanecarboxylic acid] |
| > 5.00 | C=C[C@@H]1C[C@]1(NC(=O)[C@@H]1C[C@@H]2CN1C(=O)[C@H](CCCC)NC(=O)CCCCCCc1ccc3nc(-c4ccccc4)cc(c3c1)O2)C(=O)O [III-15, (1R,2S)-1-({[(2R,4S,7S)-7-Butyl-6,9-dioxo-20-phenyl-3,4,6,7,8,9,10,11, 12,13,14,15-dodecahydro-2H-16,18-ethanediylidene-2,5-methanopyrido[3,4-r][1,5,8]oxadiazacyclononadecin-4-yl]carbonyl}amino)-2-vinylcyclo propanecarboxylic acid] |
| > 5.00 | C=C[C@@H]1C[C@]1(NC(=O)[C@@H]1C[C@@H]2CN1C(=O)[C@H](CCCC)NC(=O)OCCCCCc1cc3c(cc(-c4ccccc4)nc3cc1OC)O2)C(=O)O [III-19, (1R,2S)-1-({[(2R,4S,7S)-7-Butyl-23-methoxy-6,9-dioxo-20-phenyl-3,4,6,7,8,9,12,13,14,15-deca hydro-2H,11H-16,18-ethanediylidene-2,5-methanopyrido[4,3-k][1, 10,3,6]dioxadiazacyclononadecin-4-yl]carbonyl}amino)-2-vinylcyclo propanecarboxylic acid] |
